In the supplement of paper PMC10849652:
Some of the results follow.

By UniProt entry, the sequences of proteins in these tests, tags left out. Where a name states a change or a piece, a line headed by the entry shows the natural chain unless it says otherwise.
UniProt P28702: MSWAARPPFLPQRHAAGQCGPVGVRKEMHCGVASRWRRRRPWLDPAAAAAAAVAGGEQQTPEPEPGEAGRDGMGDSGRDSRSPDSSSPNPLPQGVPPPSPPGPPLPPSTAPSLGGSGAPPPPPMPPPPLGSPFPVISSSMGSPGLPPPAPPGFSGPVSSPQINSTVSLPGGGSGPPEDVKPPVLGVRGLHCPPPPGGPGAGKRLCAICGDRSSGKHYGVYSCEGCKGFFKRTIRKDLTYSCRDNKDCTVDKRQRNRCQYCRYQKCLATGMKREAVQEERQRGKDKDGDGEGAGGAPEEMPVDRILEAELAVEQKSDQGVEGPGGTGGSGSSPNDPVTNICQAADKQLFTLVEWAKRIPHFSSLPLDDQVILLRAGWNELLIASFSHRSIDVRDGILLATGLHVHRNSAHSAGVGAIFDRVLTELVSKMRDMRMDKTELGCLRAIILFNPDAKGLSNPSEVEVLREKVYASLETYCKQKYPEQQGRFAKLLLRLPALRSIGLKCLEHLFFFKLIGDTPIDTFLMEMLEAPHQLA
UniProt Q9Y3V2: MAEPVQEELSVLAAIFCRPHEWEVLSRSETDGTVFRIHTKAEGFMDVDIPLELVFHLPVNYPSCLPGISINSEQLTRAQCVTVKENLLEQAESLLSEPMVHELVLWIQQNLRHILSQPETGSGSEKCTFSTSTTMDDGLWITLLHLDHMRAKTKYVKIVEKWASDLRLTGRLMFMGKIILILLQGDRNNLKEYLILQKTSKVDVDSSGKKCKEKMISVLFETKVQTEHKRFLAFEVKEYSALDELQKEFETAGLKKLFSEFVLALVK
UniProt Q9UJJ7: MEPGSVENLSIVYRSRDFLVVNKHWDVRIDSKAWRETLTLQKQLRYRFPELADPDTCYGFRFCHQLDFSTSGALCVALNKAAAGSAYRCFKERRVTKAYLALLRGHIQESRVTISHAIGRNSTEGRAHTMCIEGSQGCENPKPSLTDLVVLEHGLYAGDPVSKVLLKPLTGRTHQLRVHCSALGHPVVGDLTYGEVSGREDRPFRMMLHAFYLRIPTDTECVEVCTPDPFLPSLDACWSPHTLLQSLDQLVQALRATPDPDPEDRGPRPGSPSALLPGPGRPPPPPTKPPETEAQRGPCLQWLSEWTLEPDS
UniProt Q9UBS0: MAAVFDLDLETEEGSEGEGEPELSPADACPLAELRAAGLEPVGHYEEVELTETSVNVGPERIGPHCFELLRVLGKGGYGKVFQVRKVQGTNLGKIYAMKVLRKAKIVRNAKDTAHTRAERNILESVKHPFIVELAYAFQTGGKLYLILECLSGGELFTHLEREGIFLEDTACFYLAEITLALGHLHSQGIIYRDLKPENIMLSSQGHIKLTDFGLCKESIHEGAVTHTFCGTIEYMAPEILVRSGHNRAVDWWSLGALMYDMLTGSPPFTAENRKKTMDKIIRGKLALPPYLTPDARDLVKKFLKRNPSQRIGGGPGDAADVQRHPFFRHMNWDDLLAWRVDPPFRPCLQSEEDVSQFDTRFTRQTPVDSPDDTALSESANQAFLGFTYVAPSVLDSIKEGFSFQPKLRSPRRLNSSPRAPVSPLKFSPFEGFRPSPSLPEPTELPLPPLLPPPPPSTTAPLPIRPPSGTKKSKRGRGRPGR
UniProt P51812, whole entry, looked up: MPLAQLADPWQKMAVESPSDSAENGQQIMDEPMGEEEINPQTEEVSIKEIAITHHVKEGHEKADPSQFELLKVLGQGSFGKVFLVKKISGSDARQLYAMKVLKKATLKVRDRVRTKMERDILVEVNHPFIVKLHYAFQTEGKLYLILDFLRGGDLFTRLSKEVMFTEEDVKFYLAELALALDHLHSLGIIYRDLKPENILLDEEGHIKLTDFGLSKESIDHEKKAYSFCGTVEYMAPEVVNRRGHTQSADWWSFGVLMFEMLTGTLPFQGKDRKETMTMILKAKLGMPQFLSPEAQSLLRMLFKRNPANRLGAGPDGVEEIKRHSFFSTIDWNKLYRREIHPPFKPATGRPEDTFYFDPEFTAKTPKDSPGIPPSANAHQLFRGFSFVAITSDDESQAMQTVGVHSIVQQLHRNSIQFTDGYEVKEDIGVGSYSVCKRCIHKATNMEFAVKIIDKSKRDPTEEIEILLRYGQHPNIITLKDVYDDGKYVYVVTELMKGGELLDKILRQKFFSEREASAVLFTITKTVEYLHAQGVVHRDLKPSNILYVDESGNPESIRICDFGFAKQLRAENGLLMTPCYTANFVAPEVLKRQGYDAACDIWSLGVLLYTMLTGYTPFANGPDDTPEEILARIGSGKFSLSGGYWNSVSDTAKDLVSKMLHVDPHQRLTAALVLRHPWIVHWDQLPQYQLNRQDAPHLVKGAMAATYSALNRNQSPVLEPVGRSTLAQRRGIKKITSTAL
UniProt Q6P087: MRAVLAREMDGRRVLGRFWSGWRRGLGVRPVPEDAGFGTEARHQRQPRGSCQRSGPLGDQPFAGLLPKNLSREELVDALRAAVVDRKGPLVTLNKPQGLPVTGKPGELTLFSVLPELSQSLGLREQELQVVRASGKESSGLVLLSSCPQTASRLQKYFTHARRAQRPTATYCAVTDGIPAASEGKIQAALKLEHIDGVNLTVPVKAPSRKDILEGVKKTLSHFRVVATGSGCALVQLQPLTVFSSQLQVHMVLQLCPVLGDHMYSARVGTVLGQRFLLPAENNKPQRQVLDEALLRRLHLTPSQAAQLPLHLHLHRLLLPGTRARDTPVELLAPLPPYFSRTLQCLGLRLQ
UniProt Q96FQ6: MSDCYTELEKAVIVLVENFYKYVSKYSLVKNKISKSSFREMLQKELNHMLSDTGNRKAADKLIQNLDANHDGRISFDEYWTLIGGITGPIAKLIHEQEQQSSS
UniProt Q96C34: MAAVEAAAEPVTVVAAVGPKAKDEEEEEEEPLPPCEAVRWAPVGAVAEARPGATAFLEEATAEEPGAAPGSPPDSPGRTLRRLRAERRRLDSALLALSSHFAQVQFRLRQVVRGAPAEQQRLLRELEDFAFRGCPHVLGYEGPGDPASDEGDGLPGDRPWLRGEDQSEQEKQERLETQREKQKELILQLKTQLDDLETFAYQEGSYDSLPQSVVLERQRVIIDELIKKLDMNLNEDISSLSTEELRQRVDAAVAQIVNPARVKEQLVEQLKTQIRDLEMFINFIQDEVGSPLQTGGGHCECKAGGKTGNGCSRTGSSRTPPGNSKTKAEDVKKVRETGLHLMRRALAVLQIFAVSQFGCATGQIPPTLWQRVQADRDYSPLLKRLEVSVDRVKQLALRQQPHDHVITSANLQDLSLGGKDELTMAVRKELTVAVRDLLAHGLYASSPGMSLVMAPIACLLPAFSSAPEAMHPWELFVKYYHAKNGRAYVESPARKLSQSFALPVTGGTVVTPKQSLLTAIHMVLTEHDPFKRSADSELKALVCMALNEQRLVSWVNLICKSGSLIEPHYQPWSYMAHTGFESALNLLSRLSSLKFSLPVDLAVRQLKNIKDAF
UniProt Q8WXA3: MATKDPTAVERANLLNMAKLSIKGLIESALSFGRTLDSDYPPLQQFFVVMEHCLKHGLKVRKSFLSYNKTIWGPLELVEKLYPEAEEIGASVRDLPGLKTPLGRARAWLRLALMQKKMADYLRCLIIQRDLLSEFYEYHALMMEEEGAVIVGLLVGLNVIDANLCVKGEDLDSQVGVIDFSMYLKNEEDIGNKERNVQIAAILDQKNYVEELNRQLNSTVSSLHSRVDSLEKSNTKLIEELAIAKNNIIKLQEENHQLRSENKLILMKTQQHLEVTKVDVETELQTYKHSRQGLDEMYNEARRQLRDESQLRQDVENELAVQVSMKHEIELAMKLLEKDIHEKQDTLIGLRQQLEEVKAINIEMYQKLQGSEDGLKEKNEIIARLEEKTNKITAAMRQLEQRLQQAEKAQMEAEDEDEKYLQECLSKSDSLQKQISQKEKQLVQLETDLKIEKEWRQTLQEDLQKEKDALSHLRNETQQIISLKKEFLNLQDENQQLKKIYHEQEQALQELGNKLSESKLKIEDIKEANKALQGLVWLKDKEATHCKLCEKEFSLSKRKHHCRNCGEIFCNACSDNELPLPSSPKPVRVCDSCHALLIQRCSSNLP
UniProt Q9NYV6: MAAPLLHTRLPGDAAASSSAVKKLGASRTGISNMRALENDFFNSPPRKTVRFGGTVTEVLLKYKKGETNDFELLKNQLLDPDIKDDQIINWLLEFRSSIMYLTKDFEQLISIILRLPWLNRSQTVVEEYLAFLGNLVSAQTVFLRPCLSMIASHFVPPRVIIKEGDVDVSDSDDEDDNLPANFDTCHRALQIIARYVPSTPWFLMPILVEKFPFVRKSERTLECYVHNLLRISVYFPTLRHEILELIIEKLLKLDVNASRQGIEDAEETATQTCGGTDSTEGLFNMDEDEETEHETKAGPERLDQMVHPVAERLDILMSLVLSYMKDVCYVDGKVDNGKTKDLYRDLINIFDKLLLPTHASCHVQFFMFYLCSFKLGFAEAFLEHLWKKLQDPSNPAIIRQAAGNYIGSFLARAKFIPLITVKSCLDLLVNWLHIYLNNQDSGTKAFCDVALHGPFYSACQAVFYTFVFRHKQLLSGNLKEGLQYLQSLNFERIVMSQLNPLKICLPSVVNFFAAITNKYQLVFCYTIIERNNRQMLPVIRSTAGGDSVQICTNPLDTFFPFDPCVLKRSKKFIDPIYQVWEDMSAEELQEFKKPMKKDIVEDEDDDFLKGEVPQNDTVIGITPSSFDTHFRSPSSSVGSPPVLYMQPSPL
UniProt Q9BWD3: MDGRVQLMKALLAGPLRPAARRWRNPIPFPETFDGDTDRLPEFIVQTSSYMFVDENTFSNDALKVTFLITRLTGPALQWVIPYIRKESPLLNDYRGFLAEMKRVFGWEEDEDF
UniProt Q86WX3: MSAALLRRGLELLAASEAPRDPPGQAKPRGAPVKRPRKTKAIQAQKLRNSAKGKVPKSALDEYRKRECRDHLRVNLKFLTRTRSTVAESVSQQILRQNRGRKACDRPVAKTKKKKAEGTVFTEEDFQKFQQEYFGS
UniProt Q96EU6: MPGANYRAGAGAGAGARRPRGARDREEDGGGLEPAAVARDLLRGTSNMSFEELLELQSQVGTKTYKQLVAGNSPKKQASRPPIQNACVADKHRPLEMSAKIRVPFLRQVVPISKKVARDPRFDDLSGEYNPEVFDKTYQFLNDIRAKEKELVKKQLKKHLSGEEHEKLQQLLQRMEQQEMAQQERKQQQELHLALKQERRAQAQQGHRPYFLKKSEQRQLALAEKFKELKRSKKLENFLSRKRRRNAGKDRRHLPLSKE
UniProt Q9HCY8: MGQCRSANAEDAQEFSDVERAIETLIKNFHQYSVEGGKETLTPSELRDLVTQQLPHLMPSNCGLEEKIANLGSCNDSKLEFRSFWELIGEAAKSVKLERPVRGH
UniProt A6ZKI3: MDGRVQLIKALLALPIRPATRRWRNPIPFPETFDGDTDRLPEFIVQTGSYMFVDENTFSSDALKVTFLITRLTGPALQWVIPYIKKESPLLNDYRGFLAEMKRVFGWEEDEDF
UniProt P57060: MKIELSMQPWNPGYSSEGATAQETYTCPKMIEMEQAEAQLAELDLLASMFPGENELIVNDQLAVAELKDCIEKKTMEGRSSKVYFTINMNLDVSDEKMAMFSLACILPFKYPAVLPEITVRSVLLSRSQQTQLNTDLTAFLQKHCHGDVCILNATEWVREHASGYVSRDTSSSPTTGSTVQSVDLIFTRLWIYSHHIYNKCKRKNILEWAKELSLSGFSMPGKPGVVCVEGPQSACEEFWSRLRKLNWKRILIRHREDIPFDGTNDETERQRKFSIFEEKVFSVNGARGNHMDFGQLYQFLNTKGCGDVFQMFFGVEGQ
UniProt Q86SG5: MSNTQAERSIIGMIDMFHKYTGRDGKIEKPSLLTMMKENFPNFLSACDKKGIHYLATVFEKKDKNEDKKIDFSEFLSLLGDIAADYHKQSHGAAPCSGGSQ
UniProt P60903, whole entry, looked up: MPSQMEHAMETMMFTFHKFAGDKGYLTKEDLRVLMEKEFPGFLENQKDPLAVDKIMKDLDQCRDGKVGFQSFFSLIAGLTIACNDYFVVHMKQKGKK
UniProt Q92681: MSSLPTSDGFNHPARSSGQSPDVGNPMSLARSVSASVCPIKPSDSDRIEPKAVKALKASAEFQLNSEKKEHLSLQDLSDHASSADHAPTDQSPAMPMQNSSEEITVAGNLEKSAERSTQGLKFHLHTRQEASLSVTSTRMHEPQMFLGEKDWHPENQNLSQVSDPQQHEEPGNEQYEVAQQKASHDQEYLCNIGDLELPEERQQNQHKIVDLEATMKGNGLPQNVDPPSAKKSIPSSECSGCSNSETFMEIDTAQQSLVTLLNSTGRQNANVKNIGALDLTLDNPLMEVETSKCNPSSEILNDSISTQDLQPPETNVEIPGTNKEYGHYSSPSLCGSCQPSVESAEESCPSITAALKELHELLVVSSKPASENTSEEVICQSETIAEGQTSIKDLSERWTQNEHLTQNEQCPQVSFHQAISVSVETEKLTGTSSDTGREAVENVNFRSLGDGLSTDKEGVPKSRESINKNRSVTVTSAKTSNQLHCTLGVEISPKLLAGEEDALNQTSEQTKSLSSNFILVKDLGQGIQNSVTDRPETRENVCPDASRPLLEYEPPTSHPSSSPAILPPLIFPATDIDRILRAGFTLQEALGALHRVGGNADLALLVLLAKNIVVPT

Compound: Cc1cc(Nc2cc(CN3CCOCC3)c3nc(C)c(Cc4ccc(Cl)cc4F)n3n2)n[nH]1 [gandotinib]
Experiment: log2 fold change, soluble protein after heating vs DMSO (PISA); higher = thermal stabilisation; K562 lysate, 10 uM; active = over 0.2 and 3.5 SD of the protein, either way, in both replicates (recomputed)
Method in brief: (§1)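 K562 pellets were dounce-homogenised in PBS pH 7.4 with 1 mM MgCl2, and the crude extract at 1 mg/mL protein was treated with 10 μM compound for 30 min. Aliquots were heated for 3 min across 48°C-58°C, pooled, and brought to 0.5% NP-40 at 4°C; soluble protein was the supernatant after 21,000xg for 90 min. Soluble protein was quantified by TMTpro 16plex LC-MS/MS with channel sums equalised, and reported as log2 fold change in thermal stability against DMSO controls, with values from duplicates.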

Target	log2 fold change
RTN4, A0A0U1RQR6	inactive: 0.379
RPSA (UniProt F8WD59)	inactive: 0.201
RXRB isoform 3 (UniProt P28702)	inactive: -0.074
RWDD3 (UniProt Q9Y3V2)	inactive: -0.417
RPUSD1 (UniProt Q9UJJ7)	inactive: 0.031
RPS6KB2 (UniProt Q9UBS0)	inactive: -0.19
RPS6KA3 (UniProt P51812)	inactive: 0.156
RPUSD3 (UniProt Q6P087)	inactive: -0.197
S100A16 (UniProt Q96FQ6)	inactive: 0.763
RUNDC1 (UniProt Q96C34)	inactive: -0.011
RUFY2 isoform 1 (UniProt Q8WXA3)	inactive: 0.072
RRN3 (UniProt Q9NYV6)	inactive: 0.005

Compound: Cc1cc(Nc2cc(N3CCN(C)CC3)nc(Sc3ccc(NC(=O)C4CC4)cc3)n2)n[nH]1 [tozasertib]
Experiment: as above
Method in brief: as §1

Target	log2 fold change
RTL8A (UniProt Q9BWD3)	inactive: -0.072
RPS19BP1 (UniProt Q86WX3)	inactive: 0.038
RPS7, A0A2R8Y623	inactive: 0.235
RTN4 isoform 3 (UniProt Q9NQC3)	inactive: -0.461
RRP36 (UniProt Q96EU6)	inactive: -0.025
RPS19 (UniProt M0R2L9)	inactive: 0.064
RPS3 (UniProt E9PJN9)	inactive: -0.052
RXRB isoform 3 (UniProt P28702)	inactive: 0.006
S100A14 (UniProt Q9HCY8)	inactive: 0.138
RTL8C (UniProt A6ZKI3)	inactive: -0.007
RPUSD1 (UniProt Q9UJJ7)	inactive: -0.045
RPS6KB2 (UniProt Q9UBS0)	inactive: 0.1
RPS6KA3 (UniProt P51812)	inactive: 0.363
RPUSD3 (UniProt Q6P087)	inactive: 0.041
RWDD2B (UniProt P57060)	inactive: -0.044
RPP30 (UniProt Q5VU11)	inactive: 0.147
RUFY2 isoform 1 (UniProt Q8WXA3)	inactive: 0.131
RRN3 (UniProt Q9NYV6)	inactive: 0.152
RRBP1 isoform 3 (UniProt Q9P2E9)	inactive: 0.048

Compound: Cc1ccc(-n2nc(C(C)(C)C)cc2NC(=O)Nc2ccc(OCCN3CCOCC3)c3ccccc23)cc1 [doramapimod]
Experiment: as above
Method in brief: as §1

Target	log2 fold change
RTL8A (UniProt Q9BWD3)	inactive: -0.02
RPS19BP1 (UniProt Q86WX3)	inactive: 0.182
S100A7A (UniProt Q86SG5)	inactive: 0.02
RRP36 (UniProt Q96EU6)	inactive: 0.22
RPS19 (UniProt M0R2L9)	inactive: -0.138
RPS3 (UniProt E9PJN9)	inactive: 0.073
RXRB isoform 3 (UniProt P28702)	inactive: -0.091
RWDD3 (UniProt Q9Y3V2)	inactive: -0.007
RTL8C (UniProt A6ZKI3)	inactive: -0.107
RPS6KB2 (UniProt Q9UBS0)	inactive: 0.182
RPS6KA3 (UniProt P51812)	inactive: -0.057
RPUSD3 (UniProt Q6P087)	inactive: -0.055
RWDD2B (UniProt P57060)	inactive: -0.005
S100A16 (UniProt Q96FQ6)	inactive: -0.138
RUNDC1 (UniProt Q96C34)	inactive: 0.043
S100A10 (UniProt P60903)	inactive: 0.047
RUFY2 isoform 1 (UniProt Q8WXA3)	inactive: -0.136
RRN3 (UniProt Q9NYV6)	inactive: 0.042
RSC1A1 (UniProt Q92681)	inactive: -0.208
RRBP1 isoform 3 (UniProt Q9P2E9)	inactive: 0.083
